Legend:
DSI gill cell epithelium = test: Bidirectional transport assays (BTA), apparent permeability coefficients and transport ratios; details: asymmetrical conditions; 6 h
[1] = as above; details: rainbow trout (Oncorhynchus mykiss)

SMILES: CC(C)NCC(O)COc1ccc(CC(N)=O)cc1 (stereo not drawn) [Atenolol, atenolol]
- difference between Papp A:B and Papp B:A (DSI gill cell epithelium): no significant differences
- Papp A→B at 6 h, 1 μg L^−1 [1]: 0.1 ± 0.03 ×10⁻⁶ cm/s
- Papp B→A at 6 h, 1 μg L^−1 [1]: 0.1 ± 0.02 ×10⁻⁶ cm/s

— PMC4303912, “A primary fish gill cell culture model to assess pharmaceutical uptake and efflux: Evidence for passive and facilitated transport” (Aquatic Toxicology (Amsterdam, Netherlands), 2015)
